The source of these data is patent US7033832.

Protein sequences, listed by entry. Tags and fused reporters are not part of them. Residues count along the entry.
UniProt P35222, residues 2-781: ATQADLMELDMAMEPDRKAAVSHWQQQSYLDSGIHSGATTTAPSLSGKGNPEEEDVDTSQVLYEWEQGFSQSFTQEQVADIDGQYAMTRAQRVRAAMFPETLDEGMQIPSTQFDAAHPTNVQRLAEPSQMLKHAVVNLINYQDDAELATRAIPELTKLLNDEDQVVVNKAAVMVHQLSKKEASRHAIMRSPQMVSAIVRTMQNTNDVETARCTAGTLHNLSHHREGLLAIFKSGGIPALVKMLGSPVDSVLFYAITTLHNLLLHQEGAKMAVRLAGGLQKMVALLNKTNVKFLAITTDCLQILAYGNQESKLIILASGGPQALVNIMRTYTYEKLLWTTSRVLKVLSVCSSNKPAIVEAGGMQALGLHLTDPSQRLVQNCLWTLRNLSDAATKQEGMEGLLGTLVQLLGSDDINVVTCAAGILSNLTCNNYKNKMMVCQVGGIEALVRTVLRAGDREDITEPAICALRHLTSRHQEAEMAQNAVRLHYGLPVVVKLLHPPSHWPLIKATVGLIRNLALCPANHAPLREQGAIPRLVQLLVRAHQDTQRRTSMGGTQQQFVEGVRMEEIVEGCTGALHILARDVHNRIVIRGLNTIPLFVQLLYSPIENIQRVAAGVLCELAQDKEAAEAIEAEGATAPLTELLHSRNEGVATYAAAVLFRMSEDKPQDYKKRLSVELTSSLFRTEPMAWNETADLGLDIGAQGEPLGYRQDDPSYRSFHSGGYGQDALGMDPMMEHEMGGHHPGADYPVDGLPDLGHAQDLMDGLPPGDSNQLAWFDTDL

These are yes or no findings as the source states them, for the method shown. In cells and extracts the contact can be indirect. Some results given as binding are weak or reduced against the parent protein; the word gives no strength.

The target in test [1] is T1, VE-cadherin (vascular endothelial cadherin) of human endothelial cells (human) (UniProt P33151).
T1 sequence (looked up): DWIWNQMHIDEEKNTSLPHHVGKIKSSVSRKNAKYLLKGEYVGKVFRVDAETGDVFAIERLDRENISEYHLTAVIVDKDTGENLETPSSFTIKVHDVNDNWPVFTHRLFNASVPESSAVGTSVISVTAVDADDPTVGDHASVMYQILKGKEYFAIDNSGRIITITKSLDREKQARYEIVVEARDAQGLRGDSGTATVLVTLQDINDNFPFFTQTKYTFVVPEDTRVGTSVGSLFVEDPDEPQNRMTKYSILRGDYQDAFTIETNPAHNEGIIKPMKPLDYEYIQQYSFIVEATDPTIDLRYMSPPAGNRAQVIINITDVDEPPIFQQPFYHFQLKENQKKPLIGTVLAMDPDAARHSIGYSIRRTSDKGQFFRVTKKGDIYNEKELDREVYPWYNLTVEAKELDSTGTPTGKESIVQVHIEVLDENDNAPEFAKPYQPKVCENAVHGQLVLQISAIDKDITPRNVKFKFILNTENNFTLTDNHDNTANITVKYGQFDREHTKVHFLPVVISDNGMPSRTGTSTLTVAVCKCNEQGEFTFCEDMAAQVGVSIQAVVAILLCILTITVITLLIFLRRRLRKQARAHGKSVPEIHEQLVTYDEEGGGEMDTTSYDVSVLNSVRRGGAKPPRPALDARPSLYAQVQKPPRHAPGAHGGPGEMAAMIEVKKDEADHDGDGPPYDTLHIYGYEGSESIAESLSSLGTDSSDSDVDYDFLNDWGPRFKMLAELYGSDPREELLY
Nature of the test: co-immunoprecipitation with anti VE-cadherin antibody, immunoblot for catenins.

Test [2] addresses T1, VE-cadherin (vascular endothelial cadherin) of human endothelial cells (human). Nature of the test: co-immunoprecipitation with anti VE-cadherin antibody, immunoblot for catenins (FIG. 8). (In western blotting, separated proteins are transferred to a membrane and probed.)

For “β catenin (94 kD) of human endothelial cells (from UniProt P35222 2-781)”, the binding entry in test [1] was “binds”.

B1: γ catenin (85 kD) of human endothelial cells (protein, UniProt P14923 1-745, looked up)
chain: MEVMNLMEQPIKVTEWQQTYTYDSGIHSGANTCVPSVSSKGIMEEDEACGRQYTLKKTTTYTQGVPPSQGDLEYQMSTTARAKRVREAMCPGVSGEDSSLLLATQVEGQATNLQRLAEPSQLLKSAIVHLINYQDDAELATRALPELTKLLNDEDPVVVTKAAMIVNQLSKKEASRRALMGSPQLVAAVVRTMQNTSDLDTARCTTSILHNLSHHREGLLAIFKSGGIPALVRMLSSPVESVLFYAITTLHNLLLYQEGAKMAVRLADGLQKMVPLLNKNNPKFLAITTDCLQLLAYGNQESKLIILANGGPQALVQIMRNYSYEKLLWTTSRVLKVLSVCPSNKPAIVEAGGMQALGKHLTSNSPRLVQNCLWTLRNLSDVATKQEGLESVLKILVNQLSVDDVNVLTCATGTLSNLTCNNSKNKTLVTQNSGVEALIHAILRAGDKDDITEPAVCALRHLTSRHPEAEMAQNSVRLNYGIPAIVKLLNQPNQWPLVKATIGLIRNLALCPANHAPLQEAAVIPRLVQLLVKAHQDAQRHVAAGTQQPYTDGVRMEEIVEGCTGALHILARDPMNRMEIFRLNTIPLFVQLLYSSVENIQRVAAGVLCELAQDKEAADAIDAEGASAPLMELLHSRNEGTATYAAAVLFRISEDKNPDYRKRVSVELTNSLFKHDPAAWEAAQSMIPINEPYGDDMDATYRPMYSSDVPLDPLEMHMDMDGDYPIDTYSDGLRPPYPTADHMLA
Regarding B1, the binding result in test [1] and in test [2] was “binds” in each case.
